These are yes or no findings as the source states them, for the method shown. Some entries that bind do so weakly or less than the wild type. Values belong to the binder of their own block, whether it stands above or below them.
Columns and labels:
[1] = target: T1, 重组表达纯化的人MxA蛋白 (10-662Aa, P20591) (human) (UniProt P20591); test: ELISA, antibody coated at 1 ug/mL, biotinylated MxA titrated, streptavidin-HRP, OD450
T1 sequence (biotinylated with a commercial biotinylation reagent (sites not stated), looked up): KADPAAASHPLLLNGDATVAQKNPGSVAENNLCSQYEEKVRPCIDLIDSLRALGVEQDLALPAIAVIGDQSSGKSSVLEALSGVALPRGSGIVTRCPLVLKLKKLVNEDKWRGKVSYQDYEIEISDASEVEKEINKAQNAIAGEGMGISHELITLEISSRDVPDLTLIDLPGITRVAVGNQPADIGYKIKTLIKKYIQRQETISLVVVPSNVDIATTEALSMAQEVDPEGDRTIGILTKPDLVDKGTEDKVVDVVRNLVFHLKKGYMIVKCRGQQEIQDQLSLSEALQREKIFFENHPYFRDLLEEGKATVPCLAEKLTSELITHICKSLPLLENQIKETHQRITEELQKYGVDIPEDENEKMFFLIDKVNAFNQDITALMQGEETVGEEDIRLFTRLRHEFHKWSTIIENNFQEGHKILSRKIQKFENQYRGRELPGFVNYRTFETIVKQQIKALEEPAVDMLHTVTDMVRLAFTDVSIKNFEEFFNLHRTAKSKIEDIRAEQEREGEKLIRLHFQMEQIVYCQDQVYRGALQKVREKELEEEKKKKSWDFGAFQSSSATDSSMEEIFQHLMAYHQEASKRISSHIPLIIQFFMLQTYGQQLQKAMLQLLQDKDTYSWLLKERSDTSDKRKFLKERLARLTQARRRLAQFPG

[2] = target: T1, 重组表达纯化的人MxA蛋白 (10-662Aa, P20591) (human); test: hybridoma screening ELISA with MxA-biotin and avidin-HRP

- binding [1]: binds
- binding [2]: binds
B1: 抗体B (MxA-B抗体) (antibody, V domains shown)
VH: QVQLQQSGAELARPGASVKLSCKASGYTFTSYWILWLKQRPGQGLEWIGAVYPGDGDTRYTQKFKGKATLTADKSSSTAYMQLSSLASEDSAVYYCARGYDNSFDYWGQGTTLTVSS
VL: DVLMTQTPLSLPVSLGDQASISCRTSQTIVHSNGNTYLEWYLQKPGQSPKLLIYKVSNRFSGVPDRFSGSGSGTDFTLKISRVEAEDLGVYYCFQGSHVPPTFGAGTKLELK

- binding [1]: binds
- binding [2]: binds
B2: 抗体A (MxA-A抗体) (antibody, V domains shown)
VH: EVQLVETGGGLVQPKGSLIVSCAASGFTFNRSAMNWVRQAPGKGLEWVARIRTKSNNYATYYADSVKDRFTISRDDSQSMLYLQMNNLKTEDTAMYYCVGGSDFAYWGQGTLVTVSA
VL: DIQMTQTTSSLSASLGDRVTISCRASQDISNYLNWFQQKPDGTVKLLIYYTSRLYSGVPSRFSGSGSGTDYSLTITNLEQEDIATYFCQQGNTLPLTFGAGTKLELK

— CN116284368A
